The exact form of at least one protein or probe is not confirmed.
Biological target: RexT (Nostoc (Anabaena) sp. PCC 7120) (UniProt A0ACD6B957)
Assay: fluorescence anisotropy
Conditions: 1 mM DTT, 20 mM HEPES pH 8.0, 100 mM NaCl, 10 mM MgCl2, 10% glycerol, FA 100 nM probe, room temperature, 15 min, recombinant protein

Work on “TTATTATTCGATAATATCGAATAAACGAATTAAGG (double strand) [FA duplex probe]” yielded a Kd of 1080 nM and a Kd (2.5 eq. CdCl2) of 1200 nM.
